Data taken from the supplement of paper PMC7661543.
± gives the standard deviation of the averaged measurements. Differences between knockout arms are mostly noise.

System: MDA-MB-231
Experiment: relative cell number vs DMSO control (72 h) (% of DMSO); higher = less growth inhibition (more cells)
Procedure: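 QMAP-Seq: a pool of 5 breast cancer cell lines (ZR-75-1, SKBR3, HCC-38, MDA-MB-231, BT-20), each carrying 12 doxycycline-inducible Cas9 sgRNA perturbations (11 knockouts plus non-targeting sgNT), was treated with compounds for 72 h at four 10-fold doses (10 nM-10 uM or 1 nM-1 uM range). Barcodes were amplified and sequenced, and cell number was interpolated from 293T spike-in standard curves. The result is expressed as % of the median of DMSO wells. Two biological replicates.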

COc1cc2nccc(Oc3ccc(NC(=O)Nc4cc(C)on4)c(Cl)c3)c2cc1OC [Tivozanib]
Conditions	relative cell number
sgRNA knockout: sgATF3, 10 nM	96.5 ± 27
sgRNA knockout: sgATF3, 100 nM	105 ± 4.9
sgRNA knockout: sgATF3, 1000 nM	114 ± 10
sgRNA knockout: sgATF3, 10000 nM	49.9 ± 7.1
sgRNA knockout: sgATF4, 10 nM	68.6 ± 12
sgRNA knockout: sgATF4, 100 nM	107 ± 54
sgRNA knockout: sgATF4, 1000 nM	108 ± 17
sgRNA knockout: sgATF4, 10000 nM	42.8 ± 15
sgRNA knockout: sgATF6, 10 nM	81.9 ± 9.3
sgRNA knockout: sgATF6, 100 nM	95.7 ± 33
sgRNA knockout: sgATF6, 1000 nM	104 ± 5.9
sgRNA knockout: sgATF6, 10000 nM	50.7 ± 9.1
sgRNA knockout: sgATG7, 10 nM	100 ± 12
sgRNA knockout: sgATG7, 100 nM	104 ± 15
sgRNA knockout: sgATG7, 1000 nM	97.3 ± 1.6
sgRNA knockout: sgATG7, 10000 nM	47.16 ± 0.34
sgRNA knockout: sgERN1, 10 nM	83.6 ± 3.5
sgRNA knockout: sgERN1, 100 nM	124 ± 39
sgRNA knockout: sgERN1, 1000 nM	83 ± 31
sgRNA knockout: sgERN1, 10000 nM	52.8 ± 6.2
sgRNA knockout: sgHSF1, 10 nM	99.5 ± 11
sgRNA knockout: sgHSF1, 100 nM	106 ± 8.6
sgRNA knockout: sgHSF1, 1000 nM	120 ± 11
sgRNA knockout: sgHSF1, 10000 nM	55.6 ± 0.78
sgRNA knockout: sgHSF2, 10 nM	86.3 ± 24
sgRNA knockout: sgHSF2, 100 nM	92.2 ± 34
sgRNA knockout: sgHSF2, 1000 nM	102 ± 4.3
sgRNA knockout: sgHSF2, 10000 nM	50.4 ± 5.3
sgRNA knockout: sgKEAP1, 10 nM	105 ± 40
sgRNA knockout: sgKEAP1, 100 nM	109 ± 2.4
sgRNA knockout: sgKEAP1, 1000 nM	127 ± 25
sgRNA knockout: sgKEAP1, 10000 nM	59.1 ± 1.2
sgRNA knockout: sgNFE2L2, 10 nM	90.9 ± 12
sgRNA knockout: sgNFE2L2, 100 nM	102 ± 17
sgRNA knockout: sgNFE2L2, 1000 nM	104 ± 13
sgRNA knockout: sgNFE2L2, 10000 nM	53.6 ± 9.6
sgRNA knockout: sgSLC35F2, 10 nM	72.7 ± 3.6
sgRNA knockout: sgSLC35F2, 100 nM	73.32 ± 0.66
sgRNA knockout: sgSLC35F2, 1000 nM	122 ± 5.1
sgRNA knockout: sgSLC35F2, 10000 nM	43.8 ± 5
sgRNA knockout: sgXBP1, 10 nM	82.1 ± 5.9
sgRNA knockout: sgXBP1, 100 nM	82.6 ± 7.6
sgRNA knockout: sgXBP1, 1000 nM	92.3 ± 16
sgRNA knockout: sgXBP1, 10000 nM	56.52 ± 0.18

CC(=O)Nc1cccc(-n2c(=O)n(C3CC3)c(=O)c3c(Nc4ccc(I)cc4F)n(C)c(=O)c(C)c32)c1 [Trametinib]
Conditions	relative cell number
sgRNA knockout: sgATF3, 10 nM	96.5 ± 73
sgRNA knockout: sgATF3, 100 nM	65.6 ± 20
sgRNA knockout: sgATF3, 1000 nM	47.5 ± 6.4
sgRNA knockout: sgATF3, 10000 nM	29.6 ± 19
sgRNA knockout: sgATF4, 10 nM	99.2 ± 36
sgRNA knockout: sgATF4, 100 nM	64.2 ± 21
sgRNA knockout: sgATF4, 1000 nM	48.1 ± 6.2
sgRNA knockout: sgATF4, 10000 nM	36.2 ± 16
sgRNA knockout: sgATF6, 10 nM	117 ± 10
sgRNA knockout: sgATF6, 100 nM	74.6 ± 33
sgRNA knockout: sgATF6, 1000 nM	58.2 ± 4.6
sgRNA knockout: sgATF6, 10000 nM	38.1 ± 14
sgRNA knockout: sgATG7, 10 nM	104 ± 3.6
sgRNA knockout: sgATG7, 100 nM	72.4 ± 18
sgRNA knockout: sgATG7, 1000 nM	53.9 ± 12
sgRNA knockout: sgATG7, 10000 nM	39.1 ± 5.8
sgRNA knockout: sgERN1, 10 nM	81.1 ± 5.3
sgRNA knockout: sgERN1, 100 nM	66.9 ± 11
sgRNA knockout: sgERN1, 1000 nM	64.1 ± 5.3
sgRNA knockout: sgERN1, 10000 nM	36.9 ± 6.6
sgRNA knockout: sgHSF1, 10 nM	85.6 ± 28
sgRNA knockout: sgHSF1, 100 nM	61.5 ± 3.6
sgRNA knockout: sgHSF1, 1000 nM	49.2 ± 3.9
sgRNA knockout: sgHSF1, 10000 nM	41.5 ± 15
sgRNA knockout: sgHSF2, 10 nM	111 ± 11
sgRNA knockout: sgHSF2, 100 nM	64.3 ± 16
sgRNA knockout: sgHSF2, 1000 nM	53 ± 14
sgRNA knockout: sgHSF2, 10000 nM	39.1 ± 4.6
sgRNA knockout: sgKEAP1, 10 nM	127 ± 27
sgRNA knockout: sgKEAP1, 100 nM	63.2 ± 7.5
sgRNA knockout: sgKEAP1, 1000 nM	48.3 ± 0.75
sgRNA knockout: sgKEAP1, 10000 nM	53 ± 15
sgRNA knockout: sgNFE2L2, 10 nM	95 ± 1.3
sgRNA knockout: sgNFE2L2, 100 nM	61.9 ± 15
sgRNA knockout: sgNFE2L2, 1000 nM	54.3 ± 8.9
sgRNA knockout: sgNFE2L2, 10000 nM	32.7 ± 2.9
sgRNA knockout: sgSLC35F2, 10 nM	98.8 ± 34
sgRNA knockout: sgSLC35F2, 100 nM	65.1 ± 4
sgRNA knockout: sgSLC35F2, 1000 nM	53 ± 5.3
sgRNA knockout: sgSLC35F2, 10000 nM	30.9 ± 6.6
sgRNA knockout: sgXBP1, 10 nM	98.9 ± 5.1
sgRNA knockout: sgXBP1, 100 nM	82.1 ± 9.6
sgRNA knockout: sgXBP1, 1000 nM	48.3 ± 14
sgRNA knockout: sgXBP1, 10000 nM	46.8 ± 9.5

CC(C)[C@]12O[C@H]1[C@@H]1O[C@]13[C@]1(O[C@H]1C[C@H]1C4=C(CC[C@@]13C)C(=O)OC4)[C@@H]2O [Triptolide]
Conditions	relative cell number
sgRNA knockout: sgATF3, 1 nM	99.8 ± 4.9
sgRNA knockout: sgATF3, 10 nM	54.5 ± 4.6
sgRNA knockout: sgATF3, 100 nM	21.6 ± 0.42
sgRNA knockout: sgATF3, 1000 nM	11.6 ± 0.54
sgRNA knockout: sgATF4, 1 nM	91.3 ± 2.7
sgRNA knockout: sgATF4, 10 nM	68.8 ± 24
sgRNA knockout: sgATF4, 100 nM	24.9 ± 15
sgRNA knockout: sgATF4, 1000 nM	18.7 ± 2.8
sgRNA knockout: sgATF6, 1 nM	90.7 ± 1.6
sgRNA knockout: sgATF6, 10 nM	59.7 ± 1.2
sgRNA knockout: sgATF6, 100 nM	16 ± 3.9
sgRNA knockout: sgATF6, 1000 nM	17.4 ± 0.64
sgRNA knockout: sgATG7, 1 nM	86.7 ± 29
sgRNA knockout: sgATG7, 10 nM	49 ± 4.8
sgRNA knockout: sgATG7, 100 nM	16.5 ± 1.8
sgRNA knockout: sgATG7, 1000 nM	15.9 ± 1.4
sgRNA knockout: sgERN1, 1 nM	115 ± 37
sgRNA knockout: sgERN1, 10 nM	45.6 ± 5.5
sgRNA knockout: sgERN1, 100 nM	16.4 ± 1.5
sgRNA knockout: sgERN1, 1000 nM	15.06 ± 0.13
sgRNA knockout: sgHSF1, 1 nM	86.4 ± 5.1
sgRNA knockout: sgHSF1, 10 nM	43.9 ± 0.82
sgRNA knockout: sgHSF1, 100 nM	18.9 ± 5.4
sgRNA knockout: sgHSF1, 1000 nM	10.5 ± 3.9
sgRNA knockout: sgHSF2, 1 nM	81.1 ± 5.8
sgRNA knockout: sgHSF2, 10 nM	48.4 ± 4.2
sgRNA knockout: sgHSF2, 100 nM	15.2 ± 2.9
sgRNA knockout: sgHSF2, 1000 nM	13.3 ± 4
sgRNA knockout: sgKEAP1, 1 nM	82.3 ± 25
sgRNA knockout: sgKEAP1, 10 nM	44.7 ± 3
sgRNA knockout: sgKEAP1, 100 nM	18.2 ± 4.5
sgRNA knockout: sgKEAP1, 1000 nM	19.4 ± 1.6
sgRNA knockout: sgNFE2L2, 1 nM	102 ± 10
sgRNA knockout: sgNFE2L2, 10 nM	38.8 ± 0.86
sgRNA knockout: sgNFE2L2, 100 nM	20.3 ± 9.5
sgRNA knockout: sgNFE2L2, 1000 nM	15.1 ± 3.2
sgRNA knockout: sgSLC35F2, 1 nM	86.1 ± 33
sgRNA knockout: sgSLC35F2, 10 nM	49.3 ± 5.9
sgRNA knockout: sgSLC35F2, 100 nM	21 ± 10
sgRNA knockout: sgSLC35F2, 1000 nM	13.7 ± 5
sgRNA knockout: sgXBP1, 1 nM	77.9 ± 7.9
sgRNA knockout: sgXBP1, 10 nM	52.9 ± 3.4
sgRNA knockout: sgXBP1, 100 nM	14.6 ± 3.1
sgRNA knockout: sgXBP1, 1000 nM	13.1 ± 2.5
